Source: article doi:10.1101/2023.10.13.562155 (bioRxiv, 2023)
Read-outs that look alike come from different tables or passages of the source. No constants are given. Whether binding was seen depends on the method and setting. In cells and extracts the contact can be indirect. Some entries that bind do so weakly or less than the wild type. For part of these data: Where a sequence is shown, tags or fusion partners need not be part of it.

Sequences of proteins named here, by UniProt entry; tags and fusion partners are left off. A change or cut given only in a name is not applied to a line headed by its entry. Residues count along the entry.
UniProt Q9Z0W1, 32-427: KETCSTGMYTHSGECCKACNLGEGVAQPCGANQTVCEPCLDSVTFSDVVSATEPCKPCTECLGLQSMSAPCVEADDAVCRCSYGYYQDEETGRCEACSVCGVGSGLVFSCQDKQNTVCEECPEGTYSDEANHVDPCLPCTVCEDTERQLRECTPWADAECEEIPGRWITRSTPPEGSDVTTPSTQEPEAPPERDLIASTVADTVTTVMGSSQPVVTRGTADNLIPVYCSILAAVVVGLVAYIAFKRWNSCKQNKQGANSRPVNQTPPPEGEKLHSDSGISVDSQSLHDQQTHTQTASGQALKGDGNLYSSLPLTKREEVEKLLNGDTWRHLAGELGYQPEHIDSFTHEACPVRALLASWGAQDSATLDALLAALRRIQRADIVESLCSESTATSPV
UniProt Q9Z0W1, whole entry, looked up, stated change not applied: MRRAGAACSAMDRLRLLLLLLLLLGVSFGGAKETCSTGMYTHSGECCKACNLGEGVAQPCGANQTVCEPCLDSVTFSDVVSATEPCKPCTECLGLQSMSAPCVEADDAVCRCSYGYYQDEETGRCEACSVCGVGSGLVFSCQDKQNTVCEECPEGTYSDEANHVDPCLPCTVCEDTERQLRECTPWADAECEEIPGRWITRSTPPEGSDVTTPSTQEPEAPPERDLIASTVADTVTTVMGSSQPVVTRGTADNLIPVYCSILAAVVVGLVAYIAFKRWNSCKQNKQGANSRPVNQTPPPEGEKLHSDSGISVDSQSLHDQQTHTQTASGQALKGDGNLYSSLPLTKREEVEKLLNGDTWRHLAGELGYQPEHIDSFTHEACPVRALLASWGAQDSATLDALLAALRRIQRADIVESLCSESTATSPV
UniProt P58801, whole entry: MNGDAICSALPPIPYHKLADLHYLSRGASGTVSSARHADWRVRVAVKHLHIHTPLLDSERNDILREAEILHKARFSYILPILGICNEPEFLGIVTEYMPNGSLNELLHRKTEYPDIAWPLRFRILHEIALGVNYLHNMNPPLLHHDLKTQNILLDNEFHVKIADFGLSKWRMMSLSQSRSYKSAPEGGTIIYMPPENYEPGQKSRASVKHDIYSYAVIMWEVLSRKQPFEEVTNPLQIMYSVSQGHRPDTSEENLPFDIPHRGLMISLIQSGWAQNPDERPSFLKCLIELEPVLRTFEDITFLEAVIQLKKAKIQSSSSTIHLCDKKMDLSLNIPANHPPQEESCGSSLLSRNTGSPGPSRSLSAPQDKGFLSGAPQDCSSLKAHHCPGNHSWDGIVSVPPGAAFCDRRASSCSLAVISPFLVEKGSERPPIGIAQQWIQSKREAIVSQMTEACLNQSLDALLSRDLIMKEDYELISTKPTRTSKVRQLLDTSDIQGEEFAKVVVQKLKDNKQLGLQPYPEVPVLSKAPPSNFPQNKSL

B1: Flag-tagged mouse RhoGDI wild type (protein, UniProt Q99PT1 1-204)
chain: MAEQEPTAEQLAQIAAENEEDEHSVNYKPPAQKSIQEIQELDKDDESLRKYKEALLGRVAVSADPNVPNVIVTRLTLVCSTAPGPLELDLTGDLESFKKQSFVLKEGVEYRIKISFRVNREIVSGMKYIQHTYRKGVKIDKTDYMVGSYGPRAEEYEFLTPMEEAPKGMLARGSYNIKSRFTDDDKTDHLSWEWNLTIKKEWKD

Key:
Assay in all cases: co-IP
[1] = molecular target: p75 neurotrophin receptor (p75^NTR), endogenous in cerebellar granule neurons (mouse (endogenous in P7 CGNs)) (UniProt Q9Z0W1)
[2] = molecular target: p75 neurotrophin receptor (p75^NTR), endogenous in cerebellar granule neurons (mouse (endogenous in P7 CGNs)) (UniProt Q9Z0W1); remark: listed apart in the source
[3] = molecular target: mouse p75^NTR K282A/K285A double mutant (mouse) (UniProt Q9Z0W1)
[4] = molecular target: mouse p75^NTR K303D (mouse) (UniProt Q9Z0W1)
[5] = molecular target: mouse p75^NTR V246N (cleavage-resistant, γ-secretase mutant variant) (mouse) (UniProt Q9Z0W1)
[6] = molecular target: mouse p75^NTR wild type, transfected in NIH3T3 cells (mouse) (UniProt Q9Z0W1)

Molecule | binding [1] | binding [2] | binding [3] | binding [4] | binding [5] | binding [6]
RIP2, endogenous in cerebellar granule neurons (from UniProt P58801 1-539) | no binding (condition: with PMA) | binds |  |  |  | 
B1 |  |  | binds | no binding | binds | binds
